These are yes or no findings as the source states them, for the method shown. Some results given as binding are weak or reduced against the parent protein; the word gives no strength. Each block holds one molecule with its values, some of them ahead of it.
Tests used:
[1] = target: human LRP6 construct E1 (amino acids A20-D325) (human) (UniProt O75581); test: BLI
[2] = target: human LRP6 construct E1E4 (amino acids A20-Q1253) (human) (UniProt O75581); test: BLI
[3] = target: human LRP6 construct E1E2 (amino acids A20-E631) (human) (UniProt O75581); test: BLI
[4] = target: human LRP6 construct E1 (amino acids A20-D325) (human) (UniProt O75581); test: BLI (restates Example 5)
[5] = target: human LRP6 construct E1E2 (amino acids A20-E631) (human) (UniProt O75581); test: BLI affinity

Amino acid sequences for entries named in this document (tags omitted). A change or cut given only in a name is not applied to a line headed by its entry. Residues count along the entry.
UniProt O75581: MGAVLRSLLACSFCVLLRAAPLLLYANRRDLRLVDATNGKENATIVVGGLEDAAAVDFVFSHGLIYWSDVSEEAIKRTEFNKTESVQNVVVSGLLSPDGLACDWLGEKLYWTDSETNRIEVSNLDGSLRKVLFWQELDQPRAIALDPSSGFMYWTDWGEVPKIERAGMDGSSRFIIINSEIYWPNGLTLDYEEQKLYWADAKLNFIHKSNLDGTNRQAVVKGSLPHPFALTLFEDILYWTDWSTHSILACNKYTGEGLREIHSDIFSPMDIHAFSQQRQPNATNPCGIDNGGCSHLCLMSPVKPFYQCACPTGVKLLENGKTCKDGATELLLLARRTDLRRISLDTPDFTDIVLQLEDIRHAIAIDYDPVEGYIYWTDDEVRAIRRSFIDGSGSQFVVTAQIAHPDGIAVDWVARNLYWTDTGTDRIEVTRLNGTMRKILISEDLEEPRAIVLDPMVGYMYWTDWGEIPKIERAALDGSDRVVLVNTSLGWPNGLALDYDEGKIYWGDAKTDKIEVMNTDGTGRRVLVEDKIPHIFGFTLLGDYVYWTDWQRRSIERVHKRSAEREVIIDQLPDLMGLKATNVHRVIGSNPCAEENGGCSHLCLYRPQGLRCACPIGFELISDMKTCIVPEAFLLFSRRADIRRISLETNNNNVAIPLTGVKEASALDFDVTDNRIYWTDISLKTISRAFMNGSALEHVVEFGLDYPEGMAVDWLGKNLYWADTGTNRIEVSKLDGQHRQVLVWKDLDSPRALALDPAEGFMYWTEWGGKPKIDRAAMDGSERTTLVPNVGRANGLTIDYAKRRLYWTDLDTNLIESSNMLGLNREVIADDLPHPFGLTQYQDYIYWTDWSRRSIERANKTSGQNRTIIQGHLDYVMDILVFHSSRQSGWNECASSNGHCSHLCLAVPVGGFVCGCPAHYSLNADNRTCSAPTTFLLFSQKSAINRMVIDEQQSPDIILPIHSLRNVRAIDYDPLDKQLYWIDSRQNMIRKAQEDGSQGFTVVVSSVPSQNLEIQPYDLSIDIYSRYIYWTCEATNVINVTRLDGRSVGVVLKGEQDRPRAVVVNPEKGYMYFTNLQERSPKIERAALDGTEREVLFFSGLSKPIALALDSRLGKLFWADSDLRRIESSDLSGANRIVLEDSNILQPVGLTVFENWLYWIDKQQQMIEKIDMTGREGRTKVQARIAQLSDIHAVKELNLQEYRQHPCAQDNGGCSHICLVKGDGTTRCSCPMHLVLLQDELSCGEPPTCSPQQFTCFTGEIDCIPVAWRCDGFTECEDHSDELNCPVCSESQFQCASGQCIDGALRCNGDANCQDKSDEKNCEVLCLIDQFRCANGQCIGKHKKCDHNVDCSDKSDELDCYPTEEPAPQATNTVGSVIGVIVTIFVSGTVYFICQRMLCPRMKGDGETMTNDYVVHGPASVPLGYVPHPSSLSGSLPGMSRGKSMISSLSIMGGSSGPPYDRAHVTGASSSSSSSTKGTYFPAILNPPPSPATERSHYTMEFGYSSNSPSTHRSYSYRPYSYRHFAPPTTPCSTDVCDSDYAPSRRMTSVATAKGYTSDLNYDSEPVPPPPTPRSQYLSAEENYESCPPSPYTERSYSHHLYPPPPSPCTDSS
human LRP6 construct E1E4 (amino acids A20-Q1253): residues 20-1253 of O75581
human LRP6 construct E1E2 (amino acids A20-E631): residues 20-631 of O75581
human LRP6 construct E1 (amino acids A20-D325): residues 20-325 of O75581
UniProt Q9BQB4, residues 24-213: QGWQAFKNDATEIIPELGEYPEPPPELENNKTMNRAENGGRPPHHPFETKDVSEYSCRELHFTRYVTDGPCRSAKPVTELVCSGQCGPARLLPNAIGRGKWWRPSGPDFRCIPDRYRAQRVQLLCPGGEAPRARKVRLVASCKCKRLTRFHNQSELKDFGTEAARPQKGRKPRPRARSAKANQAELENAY

binding [1]: binds
binding [2]: binds
binding [3]: binds
binding [4]: binds
Molecule: Sclerostin (wild type) (from UniProt Q9BQB4 24-213) (ligand)

binding [5]: no binding (tested: >364-fold effect)
B1: Dkk1 Ile42Glu (ligand, human, UniProt O94907 32-266, looked up)
chain: TLNSVLNSNAEKNLPPPLGGAAGHPGSAVSAAPGILYPGGNKYQTIDNYQPYPCAEDEECGTDEYCASPTRGGDAGVQICLACRKRRKRCMRHAMCCPGNYCKNGICVSSDQNHFRGEIEETITESFGNDHSTLDGYSRRTTLSSKMYHTKGQEGSVCLRSSDCASGLCCARHFWSKICKPVLKEGQVCTKHRRKGSHGLEIFQRCYCGEGLSCRIQKDHHQASNSSRLHTCQRH
notes: also called Dkk1 I42E

— patent publication US20140235820A1, “METHODS AND COMPOSITIONS FOR MODULATING THE Wnt PATHWAY” (Genentech, Inc., priority 2010, published 2014)
